The nature of this data set: peptide synthesis. The note with it: conjugation step, reverse phase HPLC with UV/VIS detector, C-18 column.

For “ECL1i (DLeu-Gly-DThr-DPhe-DLeu-DLys-DCys)”, the “final HPLC purity” value was determined as 99%.

The record behind these values is US12016935B2 (Washington University, priority 2016, dated 2024).
